Experiments:
[1] = Water resistance of writing (drawdown paper dipped in tap water, Macbeth densitometer); conditions: drawdown paper air-dried one day
[2] = Light resistance of writing (drawdown paper exposed to sunlight); design: key: A: Little discoloration is observed; B: Discoloration is observed; C: Discoloration is severe; conditions: exposed to sunlight for one month

| SMILES | Writing evaluation: Water resistance [1] | Writing evaluation: Light resistance [2] |
| --- | --- | --- |
| Cc1ccccc1N=Nc1c(S(=O)(=O)O)cc2cc(S(=O)(=O)O)c(N=Nc3ccc(Oc4ccc(Oc5ccc(N=Nc6ccc(O)cc6O)cc5)cc4)cc3)c(N)c2c1O [Ex. 7] | A (Reflection density is more than 70% of that before testing) | B |
| Nc1ccc(N=Nc2ccc(Oc3ccc(Oc4ccc(N=Nc5c(S(=O)(=O)O)cc6cc(S(=O)(=O)O)c(N=Nc7ccc(S(=O)(=O)O)cc7)c(O)c6c5N)cc4)cc3)cc2)c(O)c1 [Ex. 8] | B (Reflection density is 50 to 70% of that before testing) | B |
| Nc1c(N=Nc2ccc(Oc3ccc(Oc4ccc(N=Nc5ccc(O)cc5O)cc4)cc3)cc2)cc(S(=O)(=O)O)c2ccc(N=Nc3ccccc3)c(O)c12 [Ex. 10] | A (Reflection density is more than 70% of that before testing) | B |
| Nc1ccc(N=Nc2ccc(S(=O)(=O)c3ccc(N=Nc4c(S(=O)(=O)O)cc5cc(S(=O)(=O)O)c(N=Nc6ccccc6)c(O)c5c4N)cc3)cc2)c(O)c1 [compound 2, reference compound] | C (Reflection density is less than 50% that before testing) | B |
| Nc1ccc(N=Nc2ccc(Oc3cccc(Oc4ccc(N=Nc5cc(S(=O)(=O)O)c6cc(S(=O)(=O)O)c(N=Nc7ccccc7)c(O)c6c5N)cc4)c3)cc2)c(O)c1 [Ex. 9] | A (Reflection density is more than 70% of that before testing) | B |
| Nc1ccc(N=Nc2ccc(Oc3ccc(Oc4ccc(N=Nc5c(S(=O)(=O)O)cc6cc(S(=O)(=O)O)c(N=Nc7ccccc7)c(O)c6c5N)cc4)cc3)cc2)c(O)c1 [Ex. 4] | A (Reflection density is more than 70% of that before testing) | B |
| Cc1cc(-c2ccc(N=Nc3c(S(=O)(=O)O)cc4cc(S(=O)(=O)O)c(N=Nc5ccccc5)c(O)c4c3N)c(C)c2)ccc1N=Nc1ccc(N)cc1N [compound 1, reference compound] | B (Reflection density is 50 to 70% of that before testing) | B |
| Nc1c(N=Nc2ccc(Oc3ccc(Oc4ccc(N=Nc5ccc(O)cc5O)cc4)cc3)cc2)c(S(=O)(=O)O)cc2cc(S(=O)(=O)O)c(N=Nc3ccccc3)c(O)c12 [Ex. 5] | B (Reflection density is 50 to 70% of that before testing) | B |
| Cc1cc(-c2ccc(N=Nc3c(S(=O)(=O)O)cc4cc(S(=O)(=O)O)c(N=Nc5ccc(S(=O)(=O)O)cc5)c(O)c4c3N)c(C)c2)ccc1N=Nc1ccc(O)cc1O [compound 3, reference compound] | C (Reflection density is less than 50% that before testing) | B |
| Nc1c(N=Nc2ccc(Oc3cccc(Oc4ccc(N=Nc5ccc(O)cc5O)cc4)c3)cc2)c(S(=O)(=O)O)cc2cc(S(=O)(=O)O)c(N=Nc3ccccc3)c(O)c12 [Ex. 2] | B (Reflection density is 50 to 70% of that before testing) | B |
| Nc1ccc(N=Nc2ccc(Oc3cccc(Oc4ccc(N=Nc5c(S(=O)(=O)O)cc6cc(S(=O)(=O)O)c(N=Nc7ccccc7)c(O)c6c5N)cc4)c3)cc2)c(O)c1 [Ex. 1] | A (Reflection density is more than 70% of that before testing) | B |
| CCC(C)c1ccc(N=Nc2c(S(=O)(=O)O)cc3cc(S(=O)(=O)O)c(N=Nc4ccc(Oc5cccc(Oc6ccc(N=Nc7ccc(O)cc7O)cc6)c5)cc4)c(N)c3c2O)cc1 (stereo not shown) [Ex. 3] | A (Reflection density is more than 70% of that before testing) | B |
| CCC(C)c1ccc(N=Nc2c(S(=O)(=O)O)cc3cc(S(=O)(=O)O)c(N=Nc4ccc(Oc5ccc(Oc6ccc(N=Nc7ccc(O)cc7O)cc6)cc5)cc4)c(N)c3c2O)cc1 (stereo not shown) [Ex. 6] | A (Reflection density is more than 70% of that before testing) | B |
| Nc1ccc2c(O)c(N=Nc3ccccc3)c(S(=O)(=O)O)cc2c1N=Nc1ccc(Oc2ccc(Oc3ccc(N=Nc4ccc(O)cc4O)cc3)cc2)cc1 [Ex. 11] | A (Reflection density is more than 70% of that before testing) | B |

Reference: patent US5336763A, “Trisazo dye and dye composition containing the same” (Orient Chemical Industries, Ltd., priority 1992, dated 1994)
